Assay results reported in article doi:10.1101/595702.
Results are given in words; binding and its absence hold for the method and conditions named. Binding seen in cells or lysates may run through a third protein. Some binding calls cover weakened binding; strength is not graded here. Where a sequence is shown, tags or fusion partners need not be part of it.

Amino acid sequences for entries named in this document (tags omitted).
UniProt Q15154: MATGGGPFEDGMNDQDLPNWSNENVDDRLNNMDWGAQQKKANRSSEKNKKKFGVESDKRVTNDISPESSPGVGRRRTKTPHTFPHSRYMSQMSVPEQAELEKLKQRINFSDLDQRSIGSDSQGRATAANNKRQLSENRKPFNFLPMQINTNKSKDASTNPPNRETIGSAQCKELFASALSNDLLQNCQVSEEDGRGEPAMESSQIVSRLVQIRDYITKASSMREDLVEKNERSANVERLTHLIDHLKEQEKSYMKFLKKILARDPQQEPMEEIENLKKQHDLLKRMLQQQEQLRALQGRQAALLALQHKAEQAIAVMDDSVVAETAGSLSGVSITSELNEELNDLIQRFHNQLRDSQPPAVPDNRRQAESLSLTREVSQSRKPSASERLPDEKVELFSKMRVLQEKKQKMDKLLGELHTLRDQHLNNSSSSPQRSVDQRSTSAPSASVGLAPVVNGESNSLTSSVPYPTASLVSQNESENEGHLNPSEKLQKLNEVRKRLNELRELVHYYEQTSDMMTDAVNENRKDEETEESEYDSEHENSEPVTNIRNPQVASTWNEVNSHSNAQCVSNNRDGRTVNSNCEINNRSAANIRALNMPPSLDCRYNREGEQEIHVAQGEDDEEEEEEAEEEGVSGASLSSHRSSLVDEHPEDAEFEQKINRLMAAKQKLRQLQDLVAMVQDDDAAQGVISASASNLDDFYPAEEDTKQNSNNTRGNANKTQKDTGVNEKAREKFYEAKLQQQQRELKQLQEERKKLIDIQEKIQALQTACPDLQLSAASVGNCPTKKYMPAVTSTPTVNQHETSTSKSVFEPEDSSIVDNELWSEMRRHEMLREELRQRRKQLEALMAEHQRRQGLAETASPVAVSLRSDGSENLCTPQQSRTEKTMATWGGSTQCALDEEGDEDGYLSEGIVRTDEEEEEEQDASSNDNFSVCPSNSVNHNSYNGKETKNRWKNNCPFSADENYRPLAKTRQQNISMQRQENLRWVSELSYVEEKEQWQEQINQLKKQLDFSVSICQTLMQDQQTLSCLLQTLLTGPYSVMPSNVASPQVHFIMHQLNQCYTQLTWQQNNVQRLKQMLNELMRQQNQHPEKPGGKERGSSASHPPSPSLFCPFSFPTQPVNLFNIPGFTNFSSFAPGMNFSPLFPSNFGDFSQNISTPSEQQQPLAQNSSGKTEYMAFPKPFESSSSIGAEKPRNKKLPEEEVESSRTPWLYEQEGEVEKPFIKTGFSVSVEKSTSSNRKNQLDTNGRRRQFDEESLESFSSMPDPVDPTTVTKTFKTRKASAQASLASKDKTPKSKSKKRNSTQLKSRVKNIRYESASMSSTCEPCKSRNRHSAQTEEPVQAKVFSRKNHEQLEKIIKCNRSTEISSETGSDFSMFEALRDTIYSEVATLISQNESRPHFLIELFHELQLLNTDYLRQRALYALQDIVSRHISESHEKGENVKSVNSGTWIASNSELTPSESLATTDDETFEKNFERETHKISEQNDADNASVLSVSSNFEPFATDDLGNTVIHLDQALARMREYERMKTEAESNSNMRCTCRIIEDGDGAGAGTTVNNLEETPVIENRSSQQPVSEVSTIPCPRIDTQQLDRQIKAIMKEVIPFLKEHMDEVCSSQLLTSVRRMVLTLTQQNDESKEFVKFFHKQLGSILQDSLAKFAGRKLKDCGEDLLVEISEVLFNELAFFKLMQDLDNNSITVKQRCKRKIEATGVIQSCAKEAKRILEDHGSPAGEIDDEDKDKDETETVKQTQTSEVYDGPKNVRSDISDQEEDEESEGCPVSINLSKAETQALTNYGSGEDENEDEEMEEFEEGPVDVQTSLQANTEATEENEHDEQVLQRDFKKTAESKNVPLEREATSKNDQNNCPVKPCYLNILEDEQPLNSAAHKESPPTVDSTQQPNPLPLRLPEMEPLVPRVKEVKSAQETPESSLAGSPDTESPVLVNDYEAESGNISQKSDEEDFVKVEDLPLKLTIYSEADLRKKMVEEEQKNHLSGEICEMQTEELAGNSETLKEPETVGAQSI

Experiments:
[1] = target: T1, 3xFLAG-TCHP (FLAG at the N-terminus), full length (human) (UniProt Q9BT92); experiment: co-IP
T1 sequence: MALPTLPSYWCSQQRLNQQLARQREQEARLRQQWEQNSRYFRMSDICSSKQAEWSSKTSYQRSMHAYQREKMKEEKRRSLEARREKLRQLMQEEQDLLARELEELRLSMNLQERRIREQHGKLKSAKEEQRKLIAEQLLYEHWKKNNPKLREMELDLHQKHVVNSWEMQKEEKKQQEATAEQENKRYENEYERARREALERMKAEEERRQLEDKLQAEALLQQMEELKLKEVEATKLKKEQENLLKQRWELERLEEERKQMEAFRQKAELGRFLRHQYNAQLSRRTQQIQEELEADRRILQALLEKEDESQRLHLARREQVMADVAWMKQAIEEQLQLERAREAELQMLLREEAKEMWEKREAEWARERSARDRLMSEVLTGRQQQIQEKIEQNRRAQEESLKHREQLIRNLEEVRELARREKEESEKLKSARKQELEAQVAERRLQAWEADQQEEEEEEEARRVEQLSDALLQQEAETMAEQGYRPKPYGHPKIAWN

[2] = target: T2, TCHP-FLAG (FLAG at the C-terminus) (human) (UniProt Q9BT92); experiment: co-IP
T2 sequence: T1 sequence

- binding [1]: binds
- binding [2]: binds
Substance: PCM1, endogenous in HEK293 cells (from UniProt Q15154 1-2024)
